The assay in a line: qHTS Assay for Lipid Storage Modulators in Drosophila S3 Cells.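 On cell number change: cells counted by Cell Tracker Red CMTPX staining in the red channel.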 As to conditions: BODIPY lipid droplet fluorescence, 18-24 h; for cell number change: measured here: cell count max response, cells fed with added oleic acid. The essentials: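 Drosophila S3 cells got compounds at several concentrations plus oleic acid (400 uM solution). Laser-scanning cytometry with 488 nm excitation read lipid droplets at 500-530 nm and cells at 575-640 nm. Percent activity was relative to 20 uM Triacsin C.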
(In general: In qHTS, concentration-response curves come from the screen itself.)

Where [1] appears, read: measured here: lipid fluorescence (Fed channel) AC50, cells fed with added oleic acid.
The mark [2] stands for this setting: measured here: cell number channel AC50, cells fed with added oleic acid.

This is one part of the list. Further columns of the screen follow, without active or inactive calls. Most of these compounds were active or inconclusive in the main read-out, so they are no random draw. Words in brackets tell the shape of the fitted curve; partial curves, single points and poor fits give uncertain potencies.

As a reminder, the AC50 is the concentration giving half of the maximal activity seen. With `Cc1cccc(OCc2nnc(SCC(=O)N3CCN(c4ccccc4)CC3)o2)c1C`, the cell number change is 12.9%. In addition, the AC50 under setting [1] is 0.0731 µM [rising, full curve, poor fit].
On to `COc1cccc(C(C(=O)NC2CCCC2)N(C(=O)c2ccco2)c2ccccc2)c1OC` (stereo not drawn), for which the cell number change was -37.3%. Besides, under setting [2], the AC50 was 0.206 µM [falling, full curve, poor fit]. For the same compound, the AC50 under setting [1] is 6.51 µM [rising, single point].
`Cc1ccccc1C(=O)N1CCN(c2ccc([N+](=O)[O-])c(NCc3ccco3)c2)CC1`: the cell number change was -12.7%.
In the case of `O=C(O)CSc1nnc(C2CC2)n1-c1ccccc1`, the cell number change was 9.64%. Besides, under setting [1], the AC50 was 0.92 µM [falling, full curve, poor fit].
With `COc1ccc(C(C)C)cc1S(=O)(=O)N1CCC(C(=O)NCc2cccnc2)CC1`, the AC50 is, setting by setting: under setting [2], 0.326 µM [rising, full curve]; under setting [1], 29.1 µM [rising, single point].
Take `CCO/N=C1\C(=O)N(c2ccccc2)c2ccccc21`: the cell number change was -9.26%.
For the compound `Nc1cc2c3c(cccc3c1)C(=O)N(CCN1CCCC1)C2=O`, the cell number change was -24.4%. Moreover, under setting [1], the AC50 was 23.1 µM [falling, partial curve].
Turning to `CCN(CC)S(=O)(=O)c1ccc(NC(=O)c2cc(=O)[nH]c3ccccc23)cc1`, the cell number change was -16.9%. For the same compound, the AC50 under setting [2] is 0.00461 µM [rising, full curve, poor fit]. Further, the AC50 under setting [1] was 2.91 µM [rising, single point].
As to `COCCn1c(=O)[nH]c2cc(C(=O)N3CCN(c4ccccc4F)CC3)ccc2c1=O`, the AC50 under setting [1] is 10.3 µM [falling, partial curve].
`CCOC(=O)C1=C(COC(=O)/C=C/c2ccc(OC)cc2)NC(=O)NC1C` (stereo not drawn): the cell number change was -19.9%. Further, under setting [1], the AC50 is 4.61 µM [rising, partial curve].
`O=C(NNc1ccc(C(F)(F)F)cc1[N+](=O)[O-])c1ccc(NS(=O)(=O)c2ccc(F)cc2)cc1`: the cell number change is -12.5%.
On to `CCOC(=O)/C(=N\Nc1cc(Cl)ccc1Cl)N1CC(C)OC(C)C1` (stereo not drawn), for which the cell number change was 13.2%. Besides, the AC50 under setting [1] was 13 µM [rising, partial curve].
As to `O=C(CSc1nc2c([nH]c3ccccc32)c(=O)n1-c1cccc(Cl)c1)N1CCOCC1`, the cell number change is -42.4%. The AC50 under setting [2] is 13 µM [falling, partial curve]. The AC50 under setting [1] was 16.4 µM [falling, single point].
For `Cc1cc(S(=O)(=O)N2CCN(c3ccccc3F)CC2)ccc1-n1cnnn1`, the cell number change came out at 20.5%.
Take `COc1ccc(OC)c(C(=O)c2coc3ccc(O)cc23)c1`: the cell number change was -1.01%. Also, the AC50 under setting [1] is 0.259 µM [rising, full curve, poor fit].
`O=C(COc1ccccc1/C=C1\SC(=O)NC1=O)Nc1ccccc1`: the cell number change was -13.6%. Under setting [2], the AC50 was 0.58 µM [falling, full curve]. Besides, the AC50 under setting [1] is 0.517 µM [falling, full curve].
Regarding `Cc1onc(-c2ccccc2Cl)c1C(=O)NNC(=O)C1CCN(Cc2ccccc2)CC1`, the cell number change is -36.1%. Moreover, under setting [2], the AC50 is 0.731 µM [falling, partial curve]. Further, the AC50 under setting [1] was 0.92 µM [falling, partial curve].
As to `Cc1ccc(O)c(C(=O)c2cnc3c(c2)c(C)nn3-c2ccccc2)c1`, the AC50 under setting [1] is 29.1 µM [rising, single point].
On to `CC(C)(C)NC(=O)C(=O)NNC(=O)c1cccc(F)c1`, for which the cell number change was determined as 1.72%. Besides, under setting [2], the AC50 is 1.3 µM [rising, full curve, poor fit].
As for `Cc1cc(C)cc(N(CC(=O)N2CCN(Cc3ccccc3)CC2)S(=O)(=O)c2c(C)noc2C)c1`, the cell number change amounted to 12%. Moreover, under setting [2], the AC50 is 0.731 µM [falling, partial curve]. The AC50 under setting [1] was 0.00461 µM [falling, full curve, poor fit].
As for `CC(C)(C)Sc1ccc(/C=N/O)cc1[N+](=O)[O-]`, the cell number change is -45%. The AC50 under setting [2] is 14.6 µM [falling, single point].
Consider `CCC(NC(=O)c1ccccc1NC(=O)c1ccccc1)C(=O)O` (stereo not drawn), for which the cell number change is -78.4%. For the same compound, under setting [2], the AC50 is 18.4 µM [falling, single point]. The AC50 under setting [1] was 20.6 µM [falling, single point].
`CCCOc1ccc2ccccc2c1/C=C1\SC(=O)NC1=O`: the cell number change is -0.365%.
As to `Cc1cccc(NC(=O)c2sc3nc4c(c(-c5cccs5)c3c2N)CN(C)CC4)c1`, the cell number change turned out to be 171%. Besides, the AC50 under setting [2] was 29.1 µM [rising, single point]. For the same compound, the AC50 under setting [1] was 18.4 µM [rising, partial curve].
For the compound `c1ccc2cc3c(NCCN4CCOCC4)ccnc3cc2c1`, the cell number change was -38.9%. Besides, the AC50 under setting [2] was 29.1 µM [falling, partial curve, poor fit]. Moreover, the AC50 under setting [1] was 29.1 µM [falling, single point].
`CSc1cc(C)[nH]c(=O)n1`: the cell number change is -63.3%. The AC50 under setting [2] was 29.1 µM [falling, single point]. The AC50 under setting [1] was 29.1 µM [falling, single point].
With `COc1ccccc1CN1CC(C(=O)NCc2nc3ccccc3n2C)CCC1=O` (stereo not drawn), the cell number change was -4.34%. Moreover, the AC50 under setting [1] is 0.411 µM [rising, full curve, poor fit].
In the case of `CCc1ccc(OCC(=O)Nc2cc(S(=O)(=O)CC)ccc2O)cc1`, the cell number change is -6.56%. The AC50 under setting [1] is 0.116 µM [falling, full curve, poor fit].
Turning to `Cc1ccc(-n2c(C)cc3c2CCCC3=O)cc1`, the half-maximal activity concentration (AC50) reads like this: under setting [2], 6.51 µM [falling, single point]; under setting [1], 5.8 µM [falling, single point].
As to `CCCS(=O)(=O)N1CCCC(C(=O)N2CCC(Cc3ccccc3)CC2)C1` (stereo not drawn), the AC50 under setting [2] is 2.91 µM [falling, partial curve].
Take `CCCNC(=O)NCCc1ccncc1`: the cell number change was 10.4%. Moreover, under setting [1], the AC50 is 16.4 µM [rising, single point].
On to `CCOC(=O)c1c(/N=C/N(C)C)sc(C=O)c1-c1ccccc1`, for which the cell number change turned out to be 31.8%. The AC50 under setting [2] is 18.4 µM [rising, single point]. In addition, the AC50 under setting [1] is 18.4 µM [rising, single point].
For the compound `COc1ccc(CC(NC(C)=O)C(=O)NC2CCN(C(=O)Nc3ccc(C#N)cc3)CC2)cc1OC` (stereo not drawn), the cell number change was -36%. Further, the AC50 under setting [2] was 1.64 µM [falling, full curve]. The concentration at half-maximal activity (AC50) under setting [1] was 4.61 µM [falling, full curve].
For the compound `CC(NC(=O)[C@H](Cc1c[nH]c2ccccc12)NC(=O)[C@@H]1Cc2ccccc2CN1)c1ccccc1` (stereo partly drawn), the cell number change came to 11.7%. Under setting [1], the AC50 is 20.6 µM [rising, single point].
In the case of `CCOCCCNC(=S)NCCNc1nc2c(C)cccc2cc1C#N`, the AC50 under setting [1] was 0.291 µM [rising, partial curve, poor fit].

Source of the values: PubChem BioAssay AID2685 (National Center for Advancing Translational Sciences (NCATS), 2010).
